Laboratory results taken from PubChem BioAssay AID2685 (National Center for Advancing Translational Sciences (NCATS), 2010).
The whole screen tested about 320,000 compounds, of which about 2,100 (0.66%) were called active. Inconclusive results, whose numbers are uncertain, are shown with a selection of clear calls. Calls come from the whole dose curve; as a rule, active = well fitted inhibition curve with a large enough effect in the signal ratio, with a control signal flat (not every such curve was filed as active); inconclusive = small, poorly fitted or top-dose-only effect, or effect the other way, or a change in a side signal; inactive = flat fitted curve, though single readings scatter; the % refers to the signal ratio. A potency beside an inconclusive call is a rough fit, not a confirmed value.
% is set by controls: 0 for no effect and ±100 for the full control effect; potency is the fitted concentration of half-maximal effect.

Experiment: qHTS Assay for Lipid Storage Modulators in Drosophila S3 Cells
Details: BODIPY lipid droplet fluorescence, 18-24 h, cells fed with added oleic acid; lipid storage change, negative = inhibition: at 46.1 µM (top of the series) unless noted
Method in brief: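 Laser-scanning cytometry quantifies lipid droplet accumulation (500–530 nm total intensity; droplet/cell object ratio) in oleic acid-fed (400 uM added) Drosophila S3 cells treated with a concentration series. 20 uM Triacsin C defined 100% inhibition.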
For `Cc1ccc(C(=O)CSc2nnc(-c3c[nH]c4ccccc34)o2)cc1`, the Potency was inconclusive: 0.58 µM [activator, partial curve].
With `CC(NC(=O)CCC(=O)NC(C)c1ccccc1)c1ccccc1` (centres undefined) the Potency was inconclusive: 13 µM [activator, partial curve].
With `S=C(Nc1cccc(Br)c1)c1ccccc1` the Potency was inconclusive: 25.9 µM [activator, single point].
With `C=CCOc1nc2c(c(=O)n(C)c(=O)n2C)n1Cc1ccc(Cl)cc1Cl` the Potency was inconclusive: 0.231 µM [rising, full curve].
With `COc1cc2[nH]c(C(=O)N3CCC(Cc4ccccc4)CC3)cc2c(OC)c1OC` the Potency was inconclusive: 29.1 µM [activator, single point].
With `COc1ccc(Cl)cc1NC(=O)C1CCCO1` (centres undefined) the lipid storage change, negative = inhibition was inconclusive: -39.6%.
In the case of `CCOC(=O)c1ccccc1NC(=O)/C=C/c1cc(OC)c(OC)c(OC)c1`, the lipid storage change, negative = inhibition is reported as inconclusive: 4.85%.
For `Cc1ccccc1NCN1C(=O)C2C3C=CC(C3)C2C1=O` (centres undefined), the Potency was inconclusive: 1.16 µM [falling, full curve].
With `CC(C)C(=O)NC(c1cccc([N+](=O)[O-])c1)c1ccc2cccnc2c1O` (centres undefined) the lipid storage change, negative = inhibition was inconclusive: -11.8%.
For `O=C(Cc1ccccc1[N+](=O)[O-])NCCCc1ccccc1`, the lipid storage change, negative = inhibition was inconclusive: 39.7%.
In the case of `CC(=O)N1CCOc2cc(S(=O)(=O)Nc3c(C)cccc3C(C)C)c(Cl)cc21`, the lipid storage change, negative = inhibition is reported as inconclusive: 5.96%.
With `COc1ccc(N=c2cc(-c3ccc(OC)cc3)oc3ccccc23)cc1` the Potency was inconclusive: 23.1 µM [cytotoxic, single point].
With `Cc1ccccc1Cn1c(=O)n(C)c(=O)c2sccc21` the lipid storage change, negative = inhibition was inconclusive: -3.79%.
In the case of `O=C(Nc1cccnc1)NC1CCCCC1`, the lipid storage change, negative = inhibition is reported as inconclusive: -28.9%.
With `O=C(c1ccc(-c2ccccc2)c(F)c1)C1CCCN(C(=O)c2cncs2)C1` (centres undefined) the lipid storage change, negative = inhibition was inconclusive: -24.6%.
For `O=C(NC1CCCCC1)c1cc(-c2ccc(F)cc2)on1`, the Potency was active: 23.1 µM.
In the case of `O=C1/C(=C/c2ccc(O)cc2)COc2ccccc21`, the Potency is reported as inconclusive: 0.731 µM [falling, single point].
In the case of `Cc1ccnc(NC(=O)CCC(=O)N(CC(=O)NC(C)(C)C)c2ccc3c(c2)OCCO3)c1`, the lipid storage change, negative = inhibition is reported as “inactive”.
In the case of `Cc1cc(N2CCCCC2)nc(N2CCCCC2)n1`, the lipid storage change, negative = inhibition is reported as inconclusive: 19.6% [at 9.22 µM].
With `NC(=O)COc1ccc(NC(=O)OCc2ccccc2)cc1` the lipid storage change, negative = inhibition was inconclusive: 51%.
In the case of `COc1ccc(CN2C(=O)c3cccnc3C2=O)cc1S(=O)(=O)N1CCCCC1`, the Potency is reported as active: 1.64 µM.
For `O=C(OCC(=O)N1CCN(c2ccccc2)CC1)c1ccc[n+]([O-])c1`, the lipid storage change, negative = inhibition was inconclusive: 12%.
With `COc1ccc(C2(C)NC(=O)N(Cc3cc(Cl)cc4c3OCOC4)C2=O)cc1OC` (centres undefined) the lipid storage change, negative = inhibition was inconclusive: -19.5%.
For `Cc1ccccc1Nc1nc(N)nc(COC(=O)c2ccc(S(=O)(=O)N(C)C)cc2)n1`, the lipid storage change, negative = inhibition was inconclusive: 2.87%.
For `Cc1cc(C)n(CC(=O)c2cccc(N)c2)n1`, the lipid storage change, negative = inhibition was inconclusive: 152%.
With `O=C1CN(C(=O)CSc2nc3ccccc3n2CCc2ccccc2)c2ccccc2N1` the lipid storage change, negative = inhibition was inconclusive: -22.6%.
With `Cc1cccc(Sc2ccc([N+](=O)[O-])cc2[N+](=O)[O-])n1` the Potency was inconclusive: 25.9 µM [falling, single point].
In the case of `Nc1ccc(Br)cc1-c1nc2ccccc2[nH]c1=O`, the Potency is reported as inconclusive: 0.231 µM [activator, single point].
For `N#Cc1nc(-c2ccc(OCc3ccccc3)cc2)oc1N1CCOCC1`, the Potency was inconclusive: 29.1 µM [activator, single point].
With `Cc1cc(N2CCCCCC2)nc2ccccc12` the Potency was inconclusive: 0.0046 µM [falling, full curve].
In the case of `CC1CN(C(=O)COC(=O)c2cccs2)CC(C)O1` (centres undefined), the lipid storage change, negative = inhibition is reported as inconclusive: -26.7%.
In the case of `O=Cc1c(NCCc2ccc(F)cc2)c2ccccc2[nH]c1=O`, the Potency is reported as inconclusive: 20.6 µM [falling, single point].
In the case of `CCOC(=O)CNC(=O)c1cnc(Nc2ccccc2OC)c2ccccc12`, the lipid storage change, negative = inhibition is reported as inconclusive: 43.3%.
For `COCCCN=C1NN=C(c2cc(C)n(-c3ccccc3)c2C)CS1`, the lipid storage change, negative = inhibition was inconclusive: 6.56%.
In the case of `O=c1oc2ccccc2c2c1ncn2-c1ccccc1`, the lipid storage change, negative = inhibition is reported as inconclusive: 27%.
In the case of `CSc1nnc(-c2ccccc2)c(=O)[nH]1`, the lipid storage change, negative = inhibition is reported as inconclusive: -43.8%.
With `CCOC(=O)N1CCN(C(=O)c2ccc3c(=O)n(CC4CCCO4)c(=S)[nH]c3c2)CC1` (centres undefined) the lipid storage change, negative = inhibition was inconclusive: 33.3%.
In the case of `O=C(Cc1c(F)cccc1Cl)NNC(=O)c1ccncc1`, the lipid storage change, negative = inhibition is reported as inconclusive: -21%.
In the case of `S=c1[nH]nc(COc2ccccc2)n1/N=C/c1cccnc1`, the lipid storage change, negative = inhibition is reported as inconclusive: 12.5%.
With `O=C(CNC(=O)C1COc2ccccc2O1)N/N=C/c1ccc([N+](=O)[O-])cc1` (centres undefined) the Potency was inconclusive: 4.11 µM [activator, full curve].
In the case of `CN(C)c1nc(N(C)C)nc(N2CCCCC2)n1`, the lipid storage change, negative = inhibition is reported as “inactive”.
For `CCOC(=O)CCn1c(CC(=O)OCC)nc2ccccc21`, the lipid storage change, negative = inhibition was inconclusive: 8.93%.
For `C/C(=N\O)C1CCCCC1`, the Potency was inconclusive: 16.4 µM [falling, partial curve].
In the case of `COC(=O)N/N=C/c1ccc([N+](=O)[O-])o1`, the lipid storage change, negative = inhibition is reported as inconclusive: -29.6%.
With `Cc1ccc2nc(-c3ccc4c(c3)OCCO4)cc(C(=O)O)c2c1` the lipid storage change, negative = inhibition was inconclusive: 17.8%.
With `CC(C)CC(NC(=O)c1ccc(Cl)cc1)C(=O)O` (centres undefined) the lipid storage change, negative = inhibition was inconclusive: -39.3%.
In the case of `O=C(NCCCCc1ccccc1)C1CCCC1`, the lipid storage change, negative = inhibition is reported as inconclusive: -20.5%.
In the case of `Cc1cc(C(=O)N2CC(C)CC(C)C2)n(-c2ccccc2)n1` (centres undefined), the lipid storage change, negative = inhibition is reported as inconclusive: 48.1%.
For `Cc1ccc(NC(=O)/C=N/OCC(=O)NCc2ccccc2Cl)cc1`, the Potency was inconclusive: 29.1 µM [falling, single point].
For `Cc1ccc(Cn2ccc(NC(=O)c3cc(-c4ccc(Cl)cc4)on3)n2)cc1`, the lipid storage change, negative = inhibition was inconclusive: 4.83%.
In the case of `CC(=O)c1ccc(OC(=O)COc2ccccc2)cc1`, the Potency is reported as inconclusive: 1.64 µM [falling, full curve, poor fit].
With `c1ccc(OCCOc2ncnc3ccccc23)cc1` the lipid storage change, negative = inhibition was inconclusive: 32.6%.
For `NC(=O)c1ccc(Oc2ccc(Cl)cc2)c([N+](=O)[O-])c1`, the lipid storage change, negative = inhibition was “inactive”.
With `CC(=O)c1c(N2CCN(Cc3ccccc3)CC2)[nH]c(-c2ccccc2)nc1=S` the lipid storage change, negative = inhibition was inconclusive: 8.52%.
For `S=c1nccc(-c2ccc(Cl)cc2)[nH]1`, the lipid storage change, negative = inhibition was inconclusive: -4.33%.
With `C[C@H](NC(=O)OCc1ccccc1)c1nnc([C@H](C)NC(=O)OCc2ccccc2)o1` the lipid storage change, negative = inhibition was “inactive”.
For `Clc1cccc(Cl)c1/C=C/c1nc2ccccc2[nH]1`, the lipid storage change, negative = inhibition was inconclusive: 32.6%.
In the case of `COC(=O)c1ccc(C(=O)N(Cc2ccccc2)c2ccccc2)cc1`, the lipid storage change, negative = inhibition is reported as inconclusive: -4.02%.
In the case of `CCC(C)N(C(=O)COC(=O)c1cc([N+](=O)[O-])ccc1N)C1CCS(=O)(=O)C1` (centres undefined), the lipid storage change, negative = inhibition is reported as inconclusive: 21.1%.
With `O=C(CSc1nnnn1C1CCCCC1)Nc1nc2c(s1)CCCC2` the lipid storage change, negative = inhibition was inconclusive: -20.1%.
For `CC(NC(N)=O)C(=O)OCC(=O)c1ccc(-c2ccccc2)cc1` (centres undefined), the lipid storage change, negative = inhibition was inconclusive: -6.61%.
For `COc1cccc(C2CC(c3cccs3)=NN2C(=O)CSC2=NN3CCCC(=O)N=C3S2)c1OC` (centres undefined), the Potency was inconclusive: 20.6 µM [falling, single point].
For `CCCc1nc(SCc2cccnc2)c2c(=O)n(C)c(=O)n(C)c2n1`, the lipid storage change, negative = inhibition was inconclusive: 49.6%.
In the case of `CCOc1ccc(S(=O)(=O)N2CCC(C(=O)NC3CCCC3)CC2)cc1`, the lipid storage change, negative = inhibition is reported as inconclusive: 10.5%.
With `Cc1nc(N2CCc3ccccc3C2)[nH]c(=O)c1Cc1ccccc1` the lipid storage change, negative = inhibition was inconclusive: 35.3%.
For `Cc1cnc(NC(=O)CSc2ncn(-c3ccccc3)n2)s1`, the lipid storage change, negative = inhibition was inconclusive: -64%.
For `Cc1ccc(-c2noc(CCCC(=O)NC3CCCC3)n2)cc1`, the lipid storage change, negative = inhibition was inconclusive: -72.2%.
For `CC1(c2ccc3ccccc3c2)NC(=O)NC1=O` (centres undefined), the lipid storage change, negative = inhibition was inconclusive: 11.8%.
For `CCc1noc(C)c1C(=O)Nc1nc2ccc(OC)cc2s1`, the lipid storage change, negative = inhibition was inconclusive: 31%.
For `Cc1ccc(CN2CCNC(=O)C2CC(=O)NCc2cc(C)n(C)n2)cc1` (centres undefined), the Potency was inconclusive: 29.1 µM [activator, single point].
With `CN(C)CCOC(=O)c1cccc(Br)c1` the lipid storage change, negative = inhibition was inconclusive: -39.5%.
For `CCOc1ccc(N(CC(=O)N/N=C/c2cc([N+](=O)[O-])ccc2Cl)S(C)(=O)=O)cc1`, the lipid storage change, negative = inhibition was inconclusive: 268%.
For `CCN(CC)CCNC(=O)c1cccc(NC(=O)C(=O)c2cc(Br)ccc2NC(C)=O)c1`, the lipid storage change, negative = inhibition was inconclusive: -33%.
For `Cc1nc(NC(=O)c2ccccc2[N+](=O)[O-])sc1C(=O)N(C)C`, the lipid storage change, negative = inhibition was inconclusive: -2.56%.
In the case of `COc1ccc(CC(=O)Nc2nc3ccccc3s2)cc1S(=O)(=O)N1CCOCC1`, the lipid storage change, negative = inhibition is reported as inconclusive: 19.7%.
In the case of `COC(CNC(=O)C1CCN(S(=O)(=O)c2cccc3nsnc23)CC1)OC`, the lipid storage change, negative = inhibition is reported as inconclusive: 106%.
In the case of `C=CCn1c(SCC#N)nc2ccccc2c1=O`, the lipid storage change, negative = inhibition is reported as inconclusive: 1.86%.
With `Cc1ccc(C(c2c(C)[nH][nH]c2=O)c2c(C)[nH][nH]c2=O)cc1[N+](=O)[O-]` the lipid storage change, negative = inhibition was inconclusive: 0.484%.
For `CC(C)CCNC(=O)CN(Cc1ccccc1)C(=O)CCC(=O)Nc1ccccn1`, the lipid storage change, negative = inhibition was inconclusive: -4.29%.
For `O=C(COC(=O)c1ccccc1F)Nc1ccc2c(c1)OCCO2`, the lipid storage change, negative = inhibition was “inconclusive”.
With `N#Cc1cnc(N)c(Br)c1` the lipid storage change, negative = inhibition was inconclusive: -1.61%.
With `CC(C)OCCCn1c(=S)[nH]c2ncccc2c1=O` the lipid storage change, negative = inhibition was inconclusive: 340%.
For `CC1CN(c2ccc(NS(=O)(=O)c3ccccc3)cc2C(=O)O)CC(C)O1` (centres undefined), the lipid storage change, negative = inhibition was inconclusive: 0.806%.
For `Cc1ccccc1CN(C)Cc1cc(=O)oc2c(C)c(C)ccc12`, the lipid storage change, negative = inhibition was inconclusive: 11.8%.
